Reference: US7674907B2, “Furanopyridine derivatives and methods of use” (Amgen Inc., priority 2004, dated 2010)
Some of these results come from one statement about several compounds together.

The chains behind the UniProt entries cited, without tags or fusion partners. Residues count along the entry.
UniProt Q07912, 117-489: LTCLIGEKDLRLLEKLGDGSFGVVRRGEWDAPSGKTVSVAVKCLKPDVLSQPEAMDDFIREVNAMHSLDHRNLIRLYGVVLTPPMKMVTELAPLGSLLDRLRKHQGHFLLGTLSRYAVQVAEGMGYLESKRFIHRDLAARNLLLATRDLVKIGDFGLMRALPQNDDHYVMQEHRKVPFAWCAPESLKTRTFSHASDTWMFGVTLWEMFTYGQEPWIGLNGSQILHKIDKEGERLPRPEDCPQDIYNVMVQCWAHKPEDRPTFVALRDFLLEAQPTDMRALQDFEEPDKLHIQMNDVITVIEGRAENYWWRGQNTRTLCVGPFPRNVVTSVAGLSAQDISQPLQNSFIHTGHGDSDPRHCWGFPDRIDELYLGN
UniProt P06239, 225-509: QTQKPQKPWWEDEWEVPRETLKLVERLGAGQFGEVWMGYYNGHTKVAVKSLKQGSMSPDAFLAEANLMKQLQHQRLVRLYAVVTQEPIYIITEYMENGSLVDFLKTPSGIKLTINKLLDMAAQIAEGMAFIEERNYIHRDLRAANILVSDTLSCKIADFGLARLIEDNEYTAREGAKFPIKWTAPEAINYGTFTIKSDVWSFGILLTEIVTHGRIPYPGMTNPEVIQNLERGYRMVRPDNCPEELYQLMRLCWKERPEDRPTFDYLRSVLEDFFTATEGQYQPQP

Experiments:
ACK1 = molecular target: T1, ACK1 (Homo sapiens, UniProt Q07912); experiment: ACK1 enzymatic assay (ELISA, PGT substrate); format: biochemical; details: read-out: average IC50 value in the ACK1 kinase enzymatic assay
T1 construct: a fusion of an N-terminal (His)6 Tag with amino acids 117 to 489 of ACK1; (His)6 (N); made in house; host or cells: baculovirus infected Hi-5 insect cells

Lck kinase enzyme = molecular target: T2, Lck kinase enzyme (Homo sapiens, UniProt P06239); experiment: LCK-Homogeneous Time Resolved Fluorescent (HTRF) kinase assay; format: biochemical; details: read-out: average IC50 value in the human HTRF assay, inhibition of the Lck kinase enzyme
T2 construct: LCK KD GST (225-509); GST

## c1ccc(-c2c(-c3ccc(OCCN4CCCC4)cc3)oc3nccc(NCCN4CCNCC4)c23)cc1 [Example 6, 3-phenyl-N-(2-(1-piperazinyl)ethyl)-2-(4-((2-(1-pyrrolidinyl)ethyl)oxy)phenyl)furo[2,3-b]pyridin-4-amine]
ACK1
  IC50: ≤ 5 µM

## c1ccc(-c2oc3nccc(NCCN4CCNCC4)c3c2-c2ccccc2)cc1 [Example 2, 2,3-diphenyl-N-(2-(1-piperazinyl)ethyl)furo[2,3-b]pyridin-4-amine]
ACK1
  IC50: ≤ 5 µM

## c1ccc(-c2oc3nccc(NC[C@@H]4CCCO4)c3c2-c2ccccc2)cc1 [Example 1, 2,3-diphenyl-N-((2S)-tetrahydro-2-furanylmethyl)furo[2,3-b]pyridin-4-amine]
ACK1
  IC50: ≤ 5 µM
Lck kinase enzyme
  IC50: ≤ 5 µM
